# Source: the supplement of paper PMC7666118
# The chains behind the UniProt entries cited, without tags or fusion partners. Where a name states a change or a piece, a line headed by the entry shows the natural chain unless it says otherwise.
# UniProt O60524: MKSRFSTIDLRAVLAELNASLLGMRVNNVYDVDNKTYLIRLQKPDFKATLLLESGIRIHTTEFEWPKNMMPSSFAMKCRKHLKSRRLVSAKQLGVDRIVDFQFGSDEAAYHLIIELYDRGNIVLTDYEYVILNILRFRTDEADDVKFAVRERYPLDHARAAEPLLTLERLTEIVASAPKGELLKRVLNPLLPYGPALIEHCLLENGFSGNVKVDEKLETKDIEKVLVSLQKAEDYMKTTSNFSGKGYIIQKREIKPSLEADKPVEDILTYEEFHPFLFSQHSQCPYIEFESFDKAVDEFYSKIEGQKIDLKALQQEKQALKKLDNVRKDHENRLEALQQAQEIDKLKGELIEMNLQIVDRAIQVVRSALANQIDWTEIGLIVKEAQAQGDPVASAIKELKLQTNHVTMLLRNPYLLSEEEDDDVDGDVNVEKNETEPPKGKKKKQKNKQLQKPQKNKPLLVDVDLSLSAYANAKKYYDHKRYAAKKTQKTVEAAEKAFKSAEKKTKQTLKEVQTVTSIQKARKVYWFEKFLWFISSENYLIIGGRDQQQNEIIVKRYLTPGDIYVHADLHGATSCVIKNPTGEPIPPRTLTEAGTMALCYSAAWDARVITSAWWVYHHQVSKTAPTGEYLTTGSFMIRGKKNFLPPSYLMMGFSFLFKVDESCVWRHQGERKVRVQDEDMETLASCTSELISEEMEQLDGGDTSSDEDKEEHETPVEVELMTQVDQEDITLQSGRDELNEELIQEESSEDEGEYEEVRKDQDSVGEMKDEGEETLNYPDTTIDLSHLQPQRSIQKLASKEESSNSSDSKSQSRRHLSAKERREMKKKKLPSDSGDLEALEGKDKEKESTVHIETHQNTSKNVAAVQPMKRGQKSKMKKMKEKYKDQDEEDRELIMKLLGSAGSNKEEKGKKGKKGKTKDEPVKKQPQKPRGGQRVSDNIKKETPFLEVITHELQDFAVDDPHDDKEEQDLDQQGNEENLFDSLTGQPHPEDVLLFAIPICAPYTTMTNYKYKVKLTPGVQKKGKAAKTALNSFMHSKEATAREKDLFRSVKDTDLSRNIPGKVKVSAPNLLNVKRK
# UniProt Q8NFH3: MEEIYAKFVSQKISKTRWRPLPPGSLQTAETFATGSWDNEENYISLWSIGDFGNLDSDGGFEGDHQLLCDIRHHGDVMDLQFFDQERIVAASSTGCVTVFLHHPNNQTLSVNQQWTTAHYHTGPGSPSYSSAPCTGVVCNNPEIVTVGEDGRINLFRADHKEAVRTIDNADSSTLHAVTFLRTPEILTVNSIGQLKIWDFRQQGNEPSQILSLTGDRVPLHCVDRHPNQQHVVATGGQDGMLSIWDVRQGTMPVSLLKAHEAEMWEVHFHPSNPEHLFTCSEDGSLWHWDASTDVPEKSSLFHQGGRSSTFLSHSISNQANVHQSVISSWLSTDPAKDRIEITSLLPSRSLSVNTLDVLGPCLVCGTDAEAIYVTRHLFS
# UniProt Q86VP3, whole entry: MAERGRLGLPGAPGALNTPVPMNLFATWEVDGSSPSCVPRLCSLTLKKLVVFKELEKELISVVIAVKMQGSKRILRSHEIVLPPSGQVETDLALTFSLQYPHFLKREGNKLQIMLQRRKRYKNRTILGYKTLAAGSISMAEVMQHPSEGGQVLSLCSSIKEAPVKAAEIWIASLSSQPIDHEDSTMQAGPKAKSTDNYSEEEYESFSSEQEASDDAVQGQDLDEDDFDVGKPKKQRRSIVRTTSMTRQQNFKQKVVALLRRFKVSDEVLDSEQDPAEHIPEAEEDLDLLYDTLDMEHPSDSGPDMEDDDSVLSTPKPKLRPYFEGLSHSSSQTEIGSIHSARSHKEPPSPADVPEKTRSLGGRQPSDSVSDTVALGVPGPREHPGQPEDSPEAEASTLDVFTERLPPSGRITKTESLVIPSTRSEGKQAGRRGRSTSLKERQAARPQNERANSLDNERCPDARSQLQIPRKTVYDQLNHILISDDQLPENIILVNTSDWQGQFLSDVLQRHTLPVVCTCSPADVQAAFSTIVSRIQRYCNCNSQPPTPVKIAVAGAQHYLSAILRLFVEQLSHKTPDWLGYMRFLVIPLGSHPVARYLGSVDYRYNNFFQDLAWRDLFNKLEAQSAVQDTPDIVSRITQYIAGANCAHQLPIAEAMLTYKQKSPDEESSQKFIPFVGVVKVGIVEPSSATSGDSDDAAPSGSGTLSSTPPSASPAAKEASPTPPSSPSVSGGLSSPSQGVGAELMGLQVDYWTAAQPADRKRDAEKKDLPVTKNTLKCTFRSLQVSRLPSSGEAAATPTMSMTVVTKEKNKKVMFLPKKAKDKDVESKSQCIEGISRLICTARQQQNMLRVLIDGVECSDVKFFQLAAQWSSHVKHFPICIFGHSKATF
# UniProt P52948: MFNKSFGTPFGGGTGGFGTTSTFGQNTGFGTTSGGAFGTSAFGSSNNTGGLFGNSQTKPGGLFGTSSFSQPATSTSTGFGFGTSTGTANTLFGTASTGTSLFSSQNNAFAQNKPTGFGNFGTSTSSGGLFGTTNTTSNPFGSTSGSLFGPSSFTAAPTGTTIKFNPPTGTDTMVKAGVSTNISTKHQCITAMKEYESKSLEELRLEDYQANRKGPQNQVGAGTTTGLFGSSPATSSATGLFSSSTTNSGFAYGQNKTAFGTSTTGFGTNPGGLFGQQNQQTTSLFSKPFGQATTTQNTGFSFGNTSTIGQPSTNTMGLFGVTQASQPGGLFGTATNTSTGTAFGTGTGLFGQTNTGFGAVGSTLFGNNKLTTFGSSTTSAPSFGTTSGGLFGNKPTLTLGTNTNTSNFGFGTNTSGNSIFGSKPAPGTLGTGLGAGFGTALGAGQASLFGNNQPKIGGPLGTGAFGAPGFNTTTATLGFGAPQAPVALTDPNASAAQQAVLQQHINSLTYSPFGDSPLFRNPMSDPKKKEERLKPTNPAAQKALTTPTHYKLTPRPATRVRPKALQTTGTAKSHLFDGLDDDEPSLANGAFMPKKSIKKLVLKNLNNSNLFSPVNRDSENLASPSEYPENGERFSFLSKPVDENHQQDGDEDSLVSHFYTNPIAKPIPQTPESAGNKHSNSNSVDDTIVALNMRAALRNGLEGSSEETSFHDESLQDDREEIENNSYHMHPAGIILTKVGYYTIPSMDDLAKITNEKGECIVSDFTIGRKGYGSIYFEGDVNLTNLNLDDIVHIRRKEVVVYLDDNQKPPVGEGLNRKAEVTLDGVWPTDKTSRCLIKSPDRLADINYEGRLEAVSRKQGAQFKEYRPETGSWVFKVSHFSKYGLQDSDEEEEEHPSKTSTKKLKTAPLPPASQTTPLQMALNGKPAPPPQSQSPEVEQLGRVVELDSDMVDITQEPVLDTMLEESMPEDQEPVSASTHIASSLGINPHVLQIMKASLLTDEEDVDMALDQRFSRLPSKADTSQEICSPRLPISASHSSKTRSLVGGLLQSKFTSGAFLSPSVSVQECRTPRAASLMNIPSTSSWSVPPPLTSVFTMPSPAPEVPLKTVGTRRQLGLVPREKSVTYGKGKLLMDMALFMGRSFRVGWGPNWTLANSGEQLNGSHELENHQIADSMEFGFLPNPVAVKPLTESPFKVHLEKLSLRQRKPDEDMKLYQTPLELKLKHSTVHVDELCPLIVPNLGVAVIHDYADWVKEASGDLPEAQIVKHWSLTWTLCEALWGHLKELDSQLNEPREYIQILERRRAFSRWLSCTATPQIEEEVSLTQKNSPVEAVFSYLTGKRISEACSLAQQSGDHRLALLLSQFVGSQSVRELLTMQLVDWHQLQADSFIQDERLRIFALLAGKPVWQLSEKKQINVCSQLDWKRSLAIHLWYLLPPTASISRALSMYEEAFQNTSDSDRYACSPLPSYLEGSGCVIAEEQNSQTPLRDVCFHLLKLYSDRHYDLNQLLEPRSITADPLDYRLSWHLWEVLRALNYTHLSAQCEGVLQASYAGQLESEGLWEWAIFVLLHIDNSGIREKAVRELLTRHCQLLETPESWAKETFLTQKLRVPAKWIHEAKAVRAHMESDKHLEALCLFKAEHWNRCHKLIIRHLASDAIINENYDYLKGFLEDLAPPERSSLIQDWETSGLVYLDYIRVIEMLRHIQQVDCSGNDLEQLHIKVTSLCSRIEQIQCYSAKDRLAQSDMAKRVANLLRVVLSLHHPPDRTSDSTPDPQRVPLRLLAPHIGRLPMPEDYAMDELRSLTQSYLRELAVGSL
# UniProt Q9UMS0: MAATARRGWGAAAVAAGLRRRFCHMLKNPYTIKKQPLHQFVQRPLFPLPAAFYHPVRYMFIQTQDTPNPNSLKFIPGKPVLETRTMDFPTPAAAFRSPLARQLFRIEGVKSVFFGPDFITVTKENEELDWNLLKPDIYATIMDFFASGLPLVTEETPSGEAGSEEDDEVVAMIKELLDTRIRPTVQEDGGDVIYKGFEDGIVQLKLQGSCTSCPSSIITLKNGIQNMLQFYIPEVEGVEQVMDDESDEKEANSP
# UniProt O43678, whole entry: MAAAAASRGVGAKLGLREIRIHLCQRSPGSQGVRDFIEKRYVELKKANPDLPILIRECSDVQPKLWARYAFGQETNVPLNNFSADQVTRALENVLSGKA
# UniProt Q92882: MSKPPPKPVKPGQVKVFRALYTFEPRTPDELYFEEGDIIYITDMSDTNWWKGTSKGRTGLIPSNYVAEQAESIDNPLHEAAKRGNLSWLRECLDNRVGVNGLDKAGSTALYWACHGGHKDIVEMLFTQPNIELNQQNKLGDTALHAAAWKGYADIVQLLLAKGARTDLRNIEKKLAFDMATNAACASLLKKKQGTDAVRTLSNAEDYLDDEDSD
# UniProt P18615, whole entry: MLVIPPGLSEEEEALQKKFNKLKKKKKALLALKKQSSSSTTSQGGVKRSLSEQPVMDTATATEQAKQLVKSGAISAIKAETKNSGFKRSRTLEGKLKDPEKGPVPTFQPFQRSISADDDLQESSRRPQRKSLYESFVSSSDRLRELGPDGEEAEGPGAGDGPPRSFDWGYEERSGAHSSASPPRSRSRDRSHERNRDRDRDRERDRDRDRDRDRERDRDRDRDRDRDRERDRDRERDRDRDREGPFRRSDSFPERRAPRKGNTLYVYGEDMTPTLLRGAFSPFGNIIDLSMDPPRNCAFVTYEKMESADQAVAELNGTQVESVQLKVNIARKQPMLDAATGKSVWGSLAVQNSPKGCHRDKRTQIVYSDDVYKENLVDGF
# UniProt Q9UNZ2: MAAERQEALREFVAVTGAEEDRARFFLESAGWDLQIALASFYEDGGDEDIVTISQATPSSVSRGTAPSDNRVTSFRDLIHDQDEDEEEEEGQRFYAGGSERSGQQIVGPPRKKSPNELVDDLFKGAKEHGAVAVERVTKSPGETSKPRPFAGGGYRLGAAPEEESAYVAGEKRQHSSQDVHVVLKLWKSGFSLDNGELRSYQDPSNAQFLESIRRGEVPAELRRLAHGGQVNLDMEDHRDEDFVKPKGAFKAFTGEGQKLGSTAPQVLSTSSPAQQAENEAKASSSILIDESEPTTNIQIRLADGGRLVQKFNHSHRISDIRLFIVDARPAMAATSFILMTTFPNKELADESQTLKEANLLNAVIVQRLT
# UniProt O75781: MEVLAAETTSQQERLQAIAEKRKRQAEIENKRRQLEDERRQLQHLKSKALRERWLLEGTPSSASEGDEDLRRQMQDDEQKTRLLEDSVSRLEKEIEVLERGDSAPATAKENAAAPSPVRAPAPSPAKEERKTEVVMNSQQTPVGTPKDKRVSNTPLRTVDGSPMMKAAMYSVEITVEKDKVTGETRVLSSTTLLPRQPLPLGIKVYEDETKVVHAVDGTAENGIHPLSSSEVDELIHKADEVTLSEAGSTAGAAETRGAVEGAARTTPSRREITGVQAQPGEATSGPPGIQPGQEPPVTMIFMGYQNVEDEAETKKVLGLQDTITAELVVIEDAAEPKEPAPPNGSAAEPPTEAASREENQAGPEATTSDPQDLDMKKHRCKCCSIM
# UniProt Q9Y530: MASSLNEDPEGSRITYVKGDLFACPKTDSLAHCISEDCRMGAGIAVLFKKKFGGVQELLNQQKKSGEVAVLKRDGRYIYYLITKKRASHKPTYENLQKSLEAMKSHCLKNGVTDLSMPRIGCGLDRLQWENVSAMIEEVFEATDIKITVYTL
# UniProt Q9HCD5: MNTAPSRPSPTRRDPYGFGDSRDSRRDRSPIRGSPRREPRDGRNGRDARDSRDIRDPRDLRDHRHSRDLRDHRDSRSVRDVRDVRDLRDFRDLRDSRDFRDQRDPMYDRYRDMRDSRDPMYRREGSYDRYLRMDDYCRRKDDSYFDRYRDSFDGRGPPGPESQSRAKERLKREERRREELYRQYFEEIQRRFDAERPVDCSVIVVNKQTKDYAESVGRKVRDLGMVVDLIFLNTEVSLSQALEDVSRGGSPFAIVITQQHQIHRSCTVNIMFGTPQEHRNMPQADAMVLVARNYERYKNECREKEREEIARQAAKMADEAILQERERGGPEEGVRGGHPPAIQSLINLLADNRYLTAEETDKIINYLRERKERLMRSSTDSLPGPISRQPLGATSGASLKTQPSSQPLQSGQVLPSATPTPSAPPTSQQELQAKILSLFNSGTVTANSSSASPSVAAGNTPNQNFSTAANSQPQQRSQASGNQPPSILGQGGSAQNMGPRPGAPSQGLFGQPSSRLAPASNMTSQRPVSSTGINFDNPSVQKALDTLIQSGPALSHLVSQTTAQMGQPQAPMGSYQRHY
# The other results are listed elsewhere or left out.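 Rule for the calls: active = dose-dependent thermal stabilisation significant by F-test of dose-response against flat model at 10% FDR; inactive = not significant.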
# Compound: Nc1nc2c(ncn2[C@@H]2O[C@H](COP(=O)(O)OP(=O)(O)OP(=O)(O)O)[C@@H](O)[C@H]2O)c(=O)[nH]1
# Assay: dose-dependent thermal stabilisation call (2D-TPP, DLPTP, 10% FDR) (binary (1 = stabilised)); higher = stabilised by the compound
# Details: system: Jurkat gel-filtered lysate; concentration range 1-500 µM
row,Target,dose-dependent thermal stabilisation call
1,NR2C2 (UniProt P49116),inactive: 0
2,PATZ1 (UniProt Q9HBE1),inactive: 0
3,NAGK (UniProt Q9UJ70),inactive: 0
4,PA2G4 (UniProt Q9UQ80),inactive: 0
5,NEMF (UniProt O60524),active: 1
6,NCK2 (UniProt O43639),inactive: 0
7,PARVG (UniProt Q9HBI0),active: 1
8,NRDC (UniProt O43847),inactive: 0
9,NSMCE4A (UniProt Q9NXX6),inactive: 0
10,NAP1L1 (UniProt P55209),inactive: 0
11,NUP43 (UniProt Q8NFH3),inactive: 0
12,NUDT4 (UniProt Q9NZJ9),inactive: 0
13,NAPG (UniProt Q99747),inactive: 0
14,OTUD6B (UniProt Q8N6M0),inactive: 0
15,PACSIN2 (UniProt Q9UNF0),inactive: 0
16,PACS2 (UniProt Q86VP3),inactive: 0
17,NUP98 (UniProt P52948),inactive: 0
18,NFU1 (UniProt Q9UMS0),inactive: 0

# As entered above:
# Value of NAP1L1 (UniProt P55209) under dose-dependent thermal stabilisation call: inactive: 0
# Value of NFU1 (UniProt Q9UMS0) under dose-dependent thermal stabilisation call: inactive: 0

# (listing goes on)

row,Target,dose-dependent thermal stabilisation call
1,NOLC1 (UniProt Q14978),inactive: 0
2,NDUFA2 (UniProt O43678),inactive: 0
3,OSTF1 (UniProt Q92882),inactive: 0
4,NELFE (UniProt P18615),inactive: 0
5,NSFL1C (UniProt Q9UNZ2),inactive: 0
6,PALM (UniProt O75781),inactive: 0
7,OARD1 (UniProt Q9Y530),inactive: 0
8,NOL11 (UniProt Q9H8H0),inactive: 0
9,PAF1 (UniProt Q8N7H5),inactive: 0
10,NDRG3 (UniProt Q9UGV2),inactive: 0
11,NQO1 (UniProt P15559),active: 1
12,NCOA5 (UniProt Q9HCD5),inactive: 0
13,NR2C2AP (UniProt Q86WQ0),inactive: 0
14,OPTN (UniProt Q96CV9),inactive: 0
15,NEO1 (UniProt Q92859),inactive: 0
16,NDOR1 (UniProt Q9UHB4),active: 1
17,PARG (UniProt Q86W56),inactive: 0
18,OSGEP (UniProt Q9NPF4),active: 1
